This data set is described as follows: peptide synthesis. Conditions: acetate.

Take “5-oxo-L-prolyl-L-histidyl-L-tryptophyl-L-seryl-L-tyrosyl-D-leucyl-L-leucyl-L-arginyl-N-ethyl-L-prolinamide”: the step yield runs as follows: (late stage modification step) 90.9%; (purification step, run 1) 86.3%; (purification step, run 2) 87.8%; (purification step, run 3) 98.9%; (purification step, run 4) 86.4%.

(Values after patent US20050261195 (published 2005).)
